# Data from patent publication US8557771B2, “Homodimer of insulinotropic peptide analogues and method for preparation thereof and use thereof” (Chongqing Fagen Biomedical Inc., priority 2009, dated 2013).
# Some entries share one result that the patent states for a list of compounds.
# System: Balb/c mice
# Assay: Blood sugar regulation in mice in vivo after intraperitoneal drug and glucose injection
# Conditions: 100 μl of 10 nmol/L drug i.p.; glucose re-challenge at 24, 48, 72 and 96 hours; FIG. 5
# Experimental: After fasting overnight, mice were intraperitoneally injected respectively with 100 μl of different drugs that were dissolved to 10 nmol/L in a 10 mmol/L sodium phosphate buffer (pH6.5), and meanwhile injected with 200 μl of glucose solution (40%). Blood was sampled at 30, 60, 120, and 180 min after drug administration and blood sugar was assayed (Blood sugar meter, LifeScan, Inc.). Then, 200 μl of glucose solution (40%) was intraperitoneally injected again at 24 hours, 48 hours, 72 hours and 96 hours after drug administration, respectively. Blood was sampled at 30 and 60 min after glucose administration and blood sugar was assayed (Blood sugar meter, LifeScan, Inc.).
row,Molecule,duration of blood sugar regulation effect
1,"Ex4C-Ex4C: Homodimer of Ex4C(NH2) (SEQ ID NO: 3), joined by a disulfide bond between the C-terminal Cys residues (disulfide homodimer, C-terminal amide; Ex4C peptide sequence) chain 1: HGEGTFTSDLSKQMEEEAVRLFIEWLKNGGSGGSC chain 2: HGEGTFTSDLSKQMEEEAVRLFIEWLKNGGSGGSC",no more than 24 hours
2,"Di-GLP-G8C: Homodimer of GLP-G8C (SEQ ID NO: 4), formed by oxidation at the C-terminal Cys (disulfide homodimer; GLP-G8C peptide sequence) chain 1: HGEGTFTSDVSSYLEGQAAKEFIAWLVKGGGGGSC chain 2: HGEGTFTSDVSSYLEGQAAKEFIAWLVKGGGGGSC",no more than 24 hours
